The supplement of paper PMC10849652
Some of the results follow.

By UniProt entry, the sequences of proteins in these tests, tags left out. Where a name states a change or a piece, a line headed by the entry shows the natural chain unless it says otherwise.
UniProt O60732: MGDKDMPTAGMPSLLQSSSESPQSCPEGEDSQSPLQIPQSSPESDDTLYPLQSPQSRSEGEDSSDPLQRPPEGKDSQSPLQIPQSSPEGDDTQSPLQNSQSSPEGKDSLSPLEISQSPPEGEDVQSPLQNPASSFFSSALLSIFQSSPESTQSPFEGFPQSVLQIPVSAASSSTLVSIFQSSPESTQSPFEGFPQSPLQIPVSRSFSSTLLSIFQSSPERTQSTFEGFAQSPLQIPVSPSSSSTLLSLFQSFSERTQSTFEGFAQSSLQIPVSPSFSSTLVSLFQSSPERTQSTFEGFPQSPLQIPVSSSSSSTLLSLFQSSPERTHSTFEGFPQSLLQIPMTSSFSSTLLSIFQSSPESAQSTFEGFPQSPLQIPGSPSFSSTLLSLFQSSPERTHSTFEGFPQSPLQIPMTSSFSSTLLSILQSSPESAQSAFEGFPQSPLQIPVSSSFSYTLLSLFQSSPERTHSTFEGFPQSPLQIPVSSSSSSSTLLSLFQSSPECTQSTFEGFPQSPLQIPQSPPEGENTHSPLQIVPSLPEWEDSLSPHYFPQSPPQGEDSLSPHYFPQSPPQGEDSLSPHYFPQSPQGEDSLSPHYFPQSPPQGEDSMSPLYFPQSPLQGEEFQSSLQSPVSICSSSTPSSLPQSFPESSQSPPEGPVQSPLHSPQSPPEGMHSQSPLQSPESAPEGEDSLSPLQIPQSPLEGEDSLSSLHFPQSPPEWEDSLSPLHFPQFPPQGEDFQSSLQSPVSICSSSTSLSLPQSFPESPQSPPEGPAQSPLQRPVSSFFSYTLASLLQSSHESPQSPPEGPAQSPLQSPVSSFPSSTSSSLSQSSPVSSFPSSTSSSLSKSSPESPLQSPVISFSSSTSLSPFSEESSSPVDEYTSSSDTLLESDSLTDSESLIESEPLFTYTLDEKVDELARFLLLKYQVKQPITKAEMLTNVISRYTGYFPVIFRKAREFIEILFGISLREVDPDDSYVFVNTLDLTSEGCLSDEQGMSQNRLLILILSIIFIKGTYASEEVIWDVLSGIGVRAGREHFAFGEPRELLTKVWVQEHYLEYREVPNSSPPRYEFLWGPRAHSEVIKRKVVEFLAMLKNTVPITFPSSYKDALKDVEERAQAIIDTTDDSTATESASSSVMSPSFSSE
UniProt Q16539, whole entry, looked up: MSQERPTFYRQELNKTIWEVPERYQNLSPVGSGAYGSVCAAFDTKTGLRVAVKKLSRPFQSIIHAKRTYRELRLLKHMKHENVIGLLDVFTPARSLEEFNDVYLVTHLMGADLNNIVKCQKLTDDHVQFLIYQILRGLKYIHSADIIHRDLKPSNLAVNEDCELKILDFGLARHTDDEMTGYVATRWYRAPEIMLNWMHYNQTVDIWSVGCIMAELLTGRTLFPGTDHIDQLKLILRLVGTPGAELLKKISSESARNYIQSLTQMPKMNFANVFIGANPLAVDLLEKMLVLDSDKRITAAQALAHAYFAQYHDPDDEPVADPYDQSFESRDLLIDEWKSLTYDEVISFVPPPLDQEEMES
UniProt P02788: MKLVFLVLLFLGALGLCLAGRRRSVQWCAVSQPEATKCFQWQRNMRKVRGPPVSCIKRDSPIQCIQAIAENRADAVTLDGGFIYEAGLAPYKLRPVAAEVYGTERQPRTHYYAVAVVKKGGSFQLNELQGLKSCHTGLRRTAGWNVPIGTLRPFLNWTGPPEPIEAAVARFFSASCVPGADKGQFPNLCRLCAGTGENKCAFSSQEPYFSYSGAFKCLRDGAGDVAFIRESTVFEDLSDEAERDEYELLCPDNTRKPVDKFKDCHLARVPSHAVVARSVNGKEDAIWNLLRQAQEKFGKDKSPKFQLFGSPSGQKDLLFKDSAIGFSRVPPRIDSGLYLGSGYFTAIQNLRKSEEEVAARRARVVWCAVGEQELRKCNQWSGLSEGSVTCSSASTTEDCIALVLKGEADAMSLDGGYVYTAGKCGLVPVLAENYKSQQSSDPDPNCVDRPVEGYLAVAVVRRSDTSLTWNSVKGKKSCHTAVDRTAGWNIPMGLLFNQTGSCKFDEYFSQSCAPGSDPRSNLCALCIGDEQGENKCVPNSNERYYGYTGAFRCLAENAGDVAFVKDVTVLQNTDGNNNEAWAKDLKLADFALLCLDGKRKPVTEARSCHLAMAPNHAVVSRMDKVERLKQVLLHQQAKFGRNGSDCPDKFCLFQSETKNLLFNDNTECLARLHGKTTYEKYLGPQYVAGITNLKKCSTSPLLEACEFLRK
UniProt P49641: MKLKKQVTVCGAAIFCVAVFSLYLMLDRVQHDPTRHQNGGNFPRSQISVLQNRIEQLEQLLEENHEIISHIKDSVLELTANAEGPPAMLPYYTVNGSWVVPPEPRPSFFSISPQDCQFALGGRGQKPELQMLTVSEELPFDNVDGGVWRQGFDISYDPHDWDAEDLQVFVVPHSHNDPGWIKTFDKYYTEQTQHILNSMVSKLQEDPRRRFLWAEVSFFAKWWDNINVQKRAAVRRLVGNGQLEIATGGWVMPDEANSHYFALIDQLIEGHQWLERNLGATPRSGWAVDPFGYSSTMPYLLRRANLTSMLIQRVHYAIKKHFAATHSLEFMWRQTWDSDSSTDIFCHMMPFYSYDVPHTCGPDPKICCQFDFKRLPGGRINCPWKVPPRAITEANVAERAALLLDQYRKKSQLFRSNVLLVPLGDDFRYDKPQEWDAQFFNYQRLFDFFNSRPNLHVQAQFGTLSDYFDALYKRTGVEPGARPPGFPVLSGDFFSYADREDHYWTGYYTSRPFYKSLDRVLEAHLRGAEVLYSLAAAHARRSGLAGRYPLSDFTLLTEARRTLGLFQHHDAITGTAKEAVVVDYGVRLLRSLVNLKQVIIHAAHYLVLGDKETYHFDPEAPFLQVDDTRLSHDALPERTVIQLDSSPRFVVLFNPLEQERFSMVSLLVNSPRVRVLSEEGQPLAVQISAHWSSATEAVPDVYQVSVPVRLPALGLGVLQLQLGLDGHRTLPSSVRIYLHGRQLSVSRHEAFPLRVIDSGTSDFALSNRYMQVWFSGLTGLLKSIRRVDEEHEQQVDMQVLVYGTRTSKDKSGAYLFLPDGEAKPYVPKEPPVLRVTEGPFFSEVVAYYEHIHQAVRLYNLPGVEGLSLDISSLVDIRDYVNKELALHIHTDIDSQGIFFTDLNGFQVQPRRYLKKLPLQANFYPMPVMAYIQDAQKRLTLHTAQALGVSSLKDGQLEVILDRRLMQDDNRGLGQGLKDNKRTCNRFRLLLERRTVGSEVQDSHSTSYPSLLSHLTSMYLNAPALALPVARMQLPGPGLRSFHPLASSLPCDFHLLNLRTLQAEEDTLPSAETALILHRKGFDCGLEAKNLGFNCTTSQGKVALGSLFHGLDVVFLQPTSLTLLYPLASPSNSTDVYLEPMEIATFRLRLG
UniProt Q5U5X0: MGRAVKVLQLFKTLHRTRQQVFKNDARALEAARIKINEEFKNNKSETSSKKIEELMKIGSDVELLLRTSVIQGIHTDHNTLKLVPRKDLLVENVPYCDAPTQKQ
UniProt Q5SRI9: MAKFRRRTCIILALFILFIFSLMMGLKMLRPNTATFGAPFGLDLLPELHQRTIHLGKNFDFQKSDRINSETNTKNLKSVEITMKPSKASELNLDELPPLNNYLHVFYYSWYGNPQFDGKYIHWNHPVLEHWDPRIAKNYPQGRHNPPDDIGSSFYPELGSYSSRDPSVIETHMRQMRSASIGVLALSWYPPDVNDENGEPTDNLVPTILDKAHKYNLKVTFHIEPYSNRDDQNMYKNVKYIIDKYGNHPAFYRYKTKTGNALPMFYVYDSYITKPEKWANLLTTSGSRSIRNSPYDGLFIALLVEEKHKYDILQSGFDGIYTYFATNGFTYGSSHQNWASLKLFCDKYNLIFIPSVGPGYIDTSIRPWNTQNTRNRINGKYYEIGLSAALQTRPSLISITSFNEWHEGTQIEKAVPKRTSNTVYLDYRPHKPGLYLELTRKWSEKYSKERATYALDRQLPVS
UniProt Q13163: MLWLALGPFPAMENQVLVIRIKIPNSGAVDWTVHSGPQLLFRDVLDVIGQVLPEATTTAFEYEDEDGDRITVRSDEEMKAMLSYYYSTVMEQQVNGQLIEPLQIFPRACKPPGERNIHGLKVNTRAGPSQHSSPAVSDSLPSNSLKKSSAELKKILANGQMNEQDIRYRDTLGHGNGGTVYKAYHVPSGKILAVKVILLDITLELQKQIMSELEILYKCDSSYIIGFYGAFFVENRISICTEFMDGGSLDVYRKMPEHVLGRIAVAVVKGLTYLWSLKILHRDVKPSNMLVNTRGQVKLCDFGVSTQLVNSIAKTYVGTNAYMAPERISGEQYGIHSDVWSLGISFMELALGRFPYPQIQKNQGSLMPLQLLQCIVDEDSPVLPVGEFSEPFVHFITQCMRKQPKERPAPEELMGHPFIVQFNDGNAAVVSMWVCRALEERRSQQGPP
UniProt P49137, whole entry, looked up: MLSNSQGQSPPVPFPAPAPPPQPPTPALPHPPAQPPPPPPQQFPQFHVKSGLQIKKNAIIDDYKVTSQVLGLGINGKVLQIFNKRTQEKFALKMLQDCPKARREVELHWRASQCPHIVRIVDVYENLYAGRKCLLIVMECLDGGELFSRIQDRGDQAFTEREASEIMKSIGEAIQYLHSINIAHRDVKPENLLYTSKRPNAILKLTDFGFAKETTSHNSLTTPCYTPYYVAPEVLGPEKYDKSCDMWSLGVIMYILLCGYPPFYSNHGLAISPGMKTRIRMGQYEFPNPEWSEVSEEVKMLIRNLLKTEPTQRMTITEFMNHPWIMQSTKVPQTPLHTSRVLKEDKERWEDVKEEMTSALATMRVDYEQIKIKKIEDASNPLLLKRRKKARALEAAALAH
UniProt Q9Y4F3: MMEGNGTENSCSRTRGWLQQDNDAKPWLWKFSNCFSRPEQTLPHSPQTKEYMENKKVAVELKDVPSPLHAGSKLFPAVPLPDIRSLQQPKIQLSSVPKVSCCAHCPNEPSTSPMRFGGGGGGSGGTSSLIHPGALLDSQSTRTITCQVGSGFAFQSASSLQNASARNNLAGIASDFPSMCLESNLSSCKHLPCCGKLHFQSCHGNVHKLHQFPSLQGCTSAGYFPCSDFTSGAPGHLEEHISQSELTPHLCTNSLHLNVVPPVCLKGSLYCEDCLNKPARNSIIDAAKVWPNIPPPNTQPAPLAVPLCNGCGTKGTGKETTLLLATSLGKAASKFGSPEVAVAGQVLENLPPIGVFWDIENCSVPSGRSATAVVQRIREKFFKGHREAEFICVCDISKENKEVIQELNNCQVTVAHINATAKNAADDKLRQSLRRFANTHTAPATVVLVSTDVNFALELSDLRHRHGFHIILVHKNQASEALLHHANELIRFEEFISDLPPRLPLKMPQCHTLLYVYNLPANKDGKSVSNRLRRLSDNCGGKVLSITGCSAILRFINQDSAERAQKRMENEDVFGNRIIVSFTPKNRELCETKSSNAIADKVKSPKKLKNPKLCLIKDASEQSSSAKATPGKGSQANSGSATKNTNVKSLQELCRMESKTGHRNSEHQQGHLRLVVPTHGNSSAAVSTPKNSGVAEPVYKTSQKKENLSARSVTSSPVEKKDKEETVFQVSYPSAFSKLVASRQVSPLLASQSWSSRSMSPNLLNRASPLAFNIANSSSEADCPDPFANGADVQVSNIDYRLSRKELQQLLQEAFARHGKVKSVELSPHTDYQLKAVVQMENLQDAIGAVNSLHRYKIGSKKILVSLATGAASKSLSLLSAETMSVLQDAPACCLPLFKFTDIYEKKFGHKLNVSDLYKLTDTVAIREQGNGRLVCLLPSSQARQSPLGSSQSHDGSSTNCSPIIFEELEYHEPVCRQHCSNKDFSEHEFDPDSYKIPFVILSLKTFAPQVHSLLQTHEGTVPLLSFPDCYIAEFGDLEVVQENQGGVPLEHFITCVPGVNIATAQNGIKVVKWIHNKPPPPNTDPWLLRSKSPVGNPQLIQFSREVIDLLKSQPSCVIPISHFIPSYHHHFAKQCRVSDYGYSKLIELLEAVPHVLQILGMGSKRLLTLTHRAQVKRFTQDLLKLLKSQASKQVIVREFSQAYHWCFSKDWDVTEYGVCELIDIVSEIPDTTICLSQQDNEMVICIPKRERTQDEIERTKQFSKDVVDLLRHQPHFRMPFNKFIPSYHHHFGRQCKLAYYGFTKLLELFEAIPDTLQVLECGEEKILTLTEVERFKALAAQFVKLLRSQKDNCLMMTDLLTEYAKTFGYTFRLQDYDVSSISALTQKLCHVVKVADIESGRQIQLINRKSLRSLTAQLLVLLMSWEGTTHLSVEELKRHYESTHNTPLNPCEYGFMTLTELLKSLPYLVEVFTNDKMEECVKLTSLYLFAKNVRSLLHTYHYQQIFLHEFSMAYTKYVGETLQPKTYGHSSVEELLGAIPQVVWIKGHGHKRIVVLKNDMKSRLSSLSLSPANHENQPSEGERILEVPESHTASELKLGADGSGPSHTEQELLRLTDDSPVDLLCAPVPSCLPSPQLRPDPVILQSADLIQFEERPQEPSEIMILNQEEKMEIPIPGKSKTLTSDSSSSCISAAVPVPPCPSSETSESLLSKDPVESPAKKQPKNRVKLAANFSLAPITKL

compound: c1cn2cc(-c3ccc4cn[nH]c4c3)nc(Nc3ccc(N4CCOCC4)cc3)c2n1 [entospletinib]; test: log2 fold change, soluble protein after heating vs DMSO (PISA); higher = thermal stabilisation; K562 lysate, 10 uM; active = over 0.2 and 3.5 SD of the protein, either way, in both replicates (recomputed)
In short: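 Thermal stability, expressed as log-two fold change relative to solvent controls, is given from duplicates. Crude K562 extract in PBS pH 7.4 with 1 mM MgCl2, at 1 mg/mL protein, was treated with 10 μM compound for 30 min and heated in aliquots for 3 min across 48°C-58°C. After pooling, adjustment to 0.5% NP-40 at 4°C and centrifugation at 21,000xg for 90 min, supernatant protein was measured by TMTpro 16plex LC-MS/MS with channel sums equalised.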

log2 fold change, inactive:
MAGEC1 (UniProt O60732) -0.003
LYPLA2 (UniProt O95372) -0.071
MAGED2 (UniProt Q9UNF1) 0.011
MAPK14 isoform 2 (UniProt Q16539) -0.015
LTF (UniProt P02788) 0.036
MAN2A2 (UniProt P49641) -0.004
LYRM7 (UniProt Q5U5X0) 0.073
MAPRE3 (UniProt Q9UPY8) 0.021
MAPK8 isoform 3 (UniProt P45983) -0.039
MANEA (UniProt Q5SRI9) 0.055
LZIC isoform 2 (UniProt Q8WZA0) 0.002
MANBA (UniProt O00462) -0.025
LZTFL1 (UniProt Q9NQ48) 0.013
MAGOHB (UniProt Q96A72) 0.03
MAPK1 (UniProt P28482) -0.039
MAD1L1 (UniProt Q9Y6D9) 0.004
MARK3 (UniProt P27448) 0.036
LZTR1 (UniProt Q8N653) 0.055
MAGT1 (UniProt Q9H0U3) 0.024
MAP2K5 (UniProt Q13163) 0.065
MACF1 (UniProt H3BQK9) -0.032
MAPKAPK2 (UniProt P49137) 0.04
LUC7L2 (UniProt Q9Y383) 0.01
MAIP1 (UniProt Q8WWC4) 0.008
LTN1 isoform 3 (UniProt O94822) 0.034
LYZ (UniProt P61626) 0.102
LUZP1 (UniProt Q86V48) -0.03
MACC1 (UniProt Q6ZN28) 0.054
MAP2K4 isoform 2 (UniProt P45985) 0.028
LUC7L (UniProt Q9NQ29) -0.019
MAPK14 (UniProt Q16539) -0.005
MARF1 (UniProt Q9Y4F3) 0.049
MARS (UniProt P56192) 0.008
MAEA (UniProt Q7L5Y9) 0.021

8 neighbouring records from above, quoted:
log2 fold change, inactive:
MAGOHB (UniProt Q96A72) 0.03
MAPK1 (UniProt P28482) -0.039
MAD1L1 (UniProt Q9Y6D9) 0.004
MARK3 (UniProt P27448) 0.036
LZTR1 (UniProt Q8N653) 0.055
MAGT1 (UniProt Q9H0U3) 0.024
MAP2K5 (UniProt Q13163) 0.065
MACF1 (UniProt H3BQK9) -0.032
